Assay results as given in patent US20180118841A1.
No constants are given. Whether binding was seen depends on the method and setting. Some binding calls cover weakened binding; strength is not graded here.

The chains behind the UniProt entries cited, without tags or fusion partners. Where a name states a change or a piece, a line headed by the entry shows the natural chain unless it says otherwise.
UniProt A9YYE7: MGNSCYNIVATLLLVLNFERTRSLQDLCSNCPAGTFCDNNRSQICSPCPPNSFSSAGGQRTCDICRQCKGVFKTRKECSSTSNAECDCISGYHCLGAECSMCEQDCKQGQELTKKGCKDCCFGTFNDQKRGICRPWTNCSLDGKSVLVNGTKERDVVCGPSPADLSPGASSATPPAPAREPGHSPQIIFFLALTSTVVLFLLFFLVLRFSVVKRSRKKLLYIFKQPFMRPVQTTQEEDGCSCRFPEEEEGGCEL
UniProt P25942: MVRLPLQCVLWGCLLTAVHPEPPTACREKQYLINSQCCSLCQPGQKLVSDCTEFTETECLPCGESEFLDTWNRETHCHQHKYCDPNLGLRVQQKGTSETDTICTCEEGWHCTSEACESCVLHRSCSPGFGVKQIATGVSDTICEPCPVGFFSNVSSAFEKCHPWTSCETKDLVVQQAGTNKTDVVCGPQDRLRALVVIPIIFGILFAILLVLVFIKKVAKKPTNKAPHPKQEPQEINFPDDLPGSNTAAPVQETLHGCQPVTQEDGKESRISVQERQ

Columns and labels:
[1] = target: T1, cynomolgus CD137 over-expressed on CHO cells (extracellular part fused to transmembrane and intracellular part of hCD40) (cynomolgus (Macaca fascicularis); human) (UniProt A9YYE7+P25942); experiment: flow cytometry, CHO-cyCD137
[2] = target: T1, cynomolgus CD137 over-expressed on CHO cells (extracellular part fused to transmembrane and intracellular part of hCD40) (cynomolgus (Macaca fascicularis); human); experiment: Cynomolgus CD137 cross-reactivity (summary table)

- binding [1]: binds
- binding [2]: binds
B1: anti-CD137 antibody 1618/1619 (antibody, IgG1, V domains shown)
VH: EVQLLESGGGLVQPGGSLRLSCAASGFTFSYGSMYWVRQAPGKGLEWVSSISSGSGSTYYADSVKGRFTISRDNSKNTLYLQMNSLRAEDTAVYYCARSSYYGSYYSIDYWGQGTLVTVSS
VL: DIQMTQSPSSLSASVGDRVTITCRASQSISSYLNWYQQKPGKAPKLLIYAASSLQSGVPSRFSGSGSGTDFTLTISSLQPEDFATYYCQQYYDNLPTFGQGTKLEIK
